{
  "source": "patent US10718760B2",
  "about": "“Method for drug binding analysis in a tissue sample” (Treat4Life AB, priority 2015, dated 2020)",
  "origin": "cited, not measured here",
  "key": {"[1]": {"tested_on": "melanoma cells without these mutations", "details": "cells without BRAF V600E or V600K mutation; cited from earlier work"}, "[2]": {"tested_on": "melanoma cell lines", "details": "by interrupting the B-Raf/MEK step on the B-Raf/MEK/ERK pathway; cited from earlier work"}},
  "note": "At least one structure is not confirmed: it was looked up by name or label, or the drawing left a doubt.",
  "data": [
    {"smiles": "CCCS(=O)(=O)Nc1ccc(F)c(C(=O)c2c[nH]c3ncc(-c4ccc(Cl)cc4)cc23)c1F", "note": "[Vemurafenib]", "values": [
      {"measurement": "Inhibition of melanoma cells", "setting": "[1]", "result": "not inhibited"},
      {"measurement": "Programmed cell death", "setting": "[2]", "result": "cause programmed cell death"}
    ]}
  ]
}
